We go through 92 compounds from publication PMC6925144, “A prospective compound screening contest identified broader inhibitors for Sirtuin 1” (Scientific Reports, 2019).

Sequences of proteins named here, by UniProt entry; tags and fusion partners are left off. Residues count along the entry.
UniProt Q96EB6, 2-747 limits assumed: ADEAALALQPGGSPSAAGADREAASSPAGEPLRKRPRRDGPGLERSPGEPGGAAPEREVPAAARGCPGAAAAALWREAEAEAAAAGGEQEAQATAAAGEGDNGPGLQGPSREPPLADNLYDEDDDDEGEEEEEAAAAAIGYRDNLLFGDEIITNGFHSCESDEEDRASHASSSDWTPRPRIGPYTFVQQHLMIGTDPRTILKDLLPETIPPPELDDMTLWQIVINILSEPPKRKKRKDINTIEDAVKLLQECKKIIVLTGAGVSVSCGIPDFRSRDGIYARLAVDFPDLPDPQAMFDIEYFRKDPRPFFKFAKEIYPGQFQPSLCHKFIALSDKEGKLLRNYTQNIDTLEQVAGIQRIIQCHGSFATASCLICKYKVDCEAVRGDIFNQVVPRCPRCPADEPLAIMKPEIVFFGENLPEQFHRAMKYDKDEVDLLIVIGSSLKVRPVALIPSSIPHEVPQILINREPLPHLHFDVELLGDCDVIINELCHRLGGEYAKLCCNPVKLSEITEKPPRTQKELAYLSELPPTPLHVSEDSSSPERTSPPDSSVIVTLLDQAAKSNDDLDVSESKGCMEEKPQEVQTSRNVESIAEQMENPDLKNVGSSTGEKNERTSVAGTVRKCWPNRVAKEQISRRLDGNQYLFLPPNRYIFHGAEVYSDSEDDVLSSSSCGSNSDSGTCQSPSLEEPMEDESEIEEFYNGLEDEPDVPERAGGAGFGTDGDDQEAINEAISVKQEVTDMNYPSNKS

The full ranking holds about 3,200 compounds; the median of “TSA(without NAD+) / Primary screening (TSA) / delta Tm (K)” is about -0.07, and the highest 2% start at about 0.37. The list shows a part of the results.

The experiment deals with NAD-dependent deacetylase Sirtuin 1 (human, UniProt Q96EB6). Kind of experiment: primary screen, delta tm. The arrangement: single well (n = 1). The note with it: 10 µM. Summed up: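 Thermal shift of Sirtuin 1 measured without NAD+, compound at 10 µM (n = 1); value is ΔTm, with hits defined as ΔTm > 0.45 K or < −1.5 K. Hits retested at 5, 10, 20 µM (n = 4) and counterscreened on bovine carbonic anhydrase and ABL1 SH2 domain.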
As to `COc1cccc(C2C(C(=O)/C=C/c3ccco3)=C(O)C(=O)N2CCN2CCOCC2)c1OC` (centres unmarked), the “TSA(without NAD+) / Primary screening (TSA) / delta Tm (K)” value was -0.07 K. Then `CC1(CN)CC1`, with 0.02 K; and `FC(F)(F)C1CCCN(c2nsc3ccccc23)C1` (centres unmarked), with 0.06 K; and `N#Cc1ncn(-c2ncnc3ccsc23)n1`, with 0.16 K. Then `Cc1ccc(-c2csc3ncnc(N4CCN(C(=O)Cc5nc(C)cs5)CC4)c23)cc1`, with -0.12 K; and `CC(=O)CN1C(=O)c2ccccc2C1=O`, with -0.08 K; and `Cc1nc(-c2ccc([N+](=O)[O-])cc2)cs1`, with -0.43 K. Then `CC1(c2cnccn2)NC(=O)NC1=O` (centres unmarked), with -0.03 K; and `O=C(CC1OC(=O)c2ccccc21)Nc1ccc2c(c1)Cc1ccccc1-2` (centres unmarked), with 0.02 K. Take `O=C(CCOc1ccccc1)Nc1ccc(N2CCN(Cc3ccccc3)CC2)cc1`: the “TSA(without NAD+) / Primary screening (TSA) / delta Tm (K)” value amounted to 0.15 K. The result for `CC1(C)C(=O)Nc2ccccc2N1C(=O)CNc1cccc2c1CCCC2` reads -0.24 K; that for `O=C(NC1CCCCCC1)c1ccc2c(c1)CC(c1ccccc1)OC2=O` (centres unmarked), 0.05 K; that for `CC1CCC(C(N)=O)CN1c1ncnc2ccsc12` (centres unmarked), -0.08 K.

Regarding `NC(=O)NCc1ccc(C(=O)Nc2nc(-c3c[nH]c(C(N)=O)c3)cs2)cc1`, the “TSA(without NAD+) / Primary screening (TSA) / delta Tm (K)” value is reported as -0.03 K. Then `NC(=O)c1oc2ccccc2c1NC(=O)Cc1ccc(Cl)c(Cl)c1`, with -0.02 K; and `CCCOc1ccc(C2C(C(=O)c3ccc(C)o3)=C(O)C(=O)N2CCCN2CCOCC2)cc1` (centres unmarked), with -0.21 K. On to `Cc1nc(C)c(C(=O)C2=C(O)C(=O)N(CCCN3CCOCC3)C2c2ccc(Cl)cc2)s1` (centres unmarked), for which the “TSA(without NAD+) / Primary screening (TSA) / delta Tm (K)” value is on record as -0.08 K. The result for `O=c1cc(CSc2nnc(-c3ccccc3)o2)c2cc3c(cc2o1)CCC3` reads -0.18 K; that for `O=C(COC(=O)/C=C/c1cn(-c2ccccc2)nc1-c1cc2ccccc2oc1=O)NC1CCS(=O)(=O)C1` (centres unmarked), -0.07 K; that for `COc1ccc(/C=C2/Oc3cc(O)ccc3C2=O)c(OC)c1`, -0.12 K. Then `O=C(c1ccccc1)C1CCN(c2ncnc3c2oc2ccccc23)CC1`, with -0.04 K; and `Cc1cc(C)c(C(N)=O)c(N2CCC3CCCCC3C2)n1` (centres unmarked), with -0.23 K; and `CC(C)CC(NC(=O)C#Cc1ccccc1)C(=O)Nc1cc[nH]n1` (centres unmarked), with -0.11 K. Then `O=C(CSc1nnc(-c2sc3ccccc3c2Cl)o1)N1CCN(C(=O)c2ccco2)CC1`, with -0.03 K; and `O=C(c1ccco1)N1CCC(Nc2nc(-c3ccccc3)nc3ccccc23)CC1`, with -0.04 K; and `NC(=O)c1c(NC(=O)CN2CCCC(CN3CCN(c4ccccn4)CC3)C2)sc2c1CCCC2` (centres unmarked), with -0.12 K. With `CCN1C(=O)c2oc3ccccc3c(=O)c2C1c1ccc(Cl)cc1` (centres unmarked), the “TSA(without NAD+) / Primary screening (TSA) / delta Tm (K)” value is -0.08 K. Then `O=C(CCc1ccccc1)NCCNc1cnccn1`, with -0.01 K; and `C=CCn1c(N)nnc1SCC1CC(C(=O)OC)=C(C)O1` (centres unmarked), with -0.02 K; and `Sc1ccc(Cl)cn1`, with -0.15 K.

`CC1CCc2c(sc3ncn(CC(=O)c4ccc5c(c4)CCC5)c(=O)c23)C1` (centres unmarked): the “TSA(without NAD+) / Primary screening (TSA) / delta Tm (K)” value came to 0.19 K. The result for `Cc1ccc(C2C(C(=O)c3sc(C)nc3C)=C(O)C(=O)N2CCCN2CCOCC2)cc1` (centres unmarked) reads -0.03 K; that for `CC(C)(C)OC(=O)NCC1CCCN1c1ccc(Br)cc1[N+](=O)[O-]` (centres unmarked), -0.03 K; that for `CN(c1ccc(OC(=O)c2cc(Cl)nc3ccccc23)cc1)S(=O)(=O)c1ccccc1`, -0.17 K. For the compound `CCOC(=O)N1CCN(Cc2ccc(OCc3cccnc3)cc2)CC1`, the “TSA(without NAD+) / Primary screening (TSA) / delta Tm (K)” value was -0.03 K. The result for `CC(=O)Nc1ccc2c(COC(=O)C34CC5CC(C3)CC(c3ccccc3)(C5)C4)cc(=O)oc2c1` reads -0.02 K; that for `CCCNC(=O)c1ccc2[nH]c3c(c2c1)CC(C)CC3` (centres unmarked), 0.16 K; that for `CC(C)c1nnc(CSc2nccn2Cc2ccccn2)o1`, -0.12 K. The result for `CC(N)CC(N)=O` (centres unmarked) reads -0.14 K; that for `O=C(OCc1nnc(C(=O)NCc2ccc(F)cc2)s1)c1cc2c(s1)CCCC2`, -0.21 K; that for `CN1CC(Nc2c(C#N)cnc3ccc(Cl)cc23)CCC1=O` (centres unmarked), -0.02 K. For `COc1ccc(-c2ccc(/C=C3\NC(=S)NC3=O)o2)c([N+](=O)[O-])c1`, the “TSA(without NAD+) / Primary screening (TSA) / delta Tm (K)” value was -0.07 K.

For the compound `CC(Oc1cccc(/C=C2/CCc3cc(O)ccc3C2=O)c1)C(=O)O` (centres unmarked), the “TSA(without NAD+) / Primary screening (TSA) / delta Tm (K)” value is on record as -0.02 K.

Regarding `CC(=O)NC12CC3CC(C1)CC(C(=O)OCC(=O)N(CCc1ccccc1)CCc1ccccc1)(C3)C2`, the “TSA(without NAD+) / Primary screening (TSA) / delta Tm (K)” value is reported as -0.05 K. The result for `COc1ccc(N(C)S(=O)(=O)c2cccc(C(=O)Nc3ccc(-n4cnnn4)cc3)c2)cc1` reads 0.59 K; that for `CC(C)(C)C(=O)N1CCc2cnccc21`, -0.08 K; that for `COCC(=O)N1CCN(Cc2c(O)ccc3ccc(OC)cc23)CC1`, -0.12 K.

In the case of `Cc1ccccc1-c1nnn(Cc2cc(=O)oc3c(C)c(C)ccc23)n1`, the “TSA(without NAD+) / Primary screening (TSA) / delta Tm (K)” value was -0.12 K. The result for `NC(=O)c1cccc(COC(=O)c2ccc3[nH]c(C(F)F)nc3c2)c1` reads 0.02 K. On to `O=C1/C(=C/c2ccc(Br)cc2F)Cc2c(O)cccc21`, for which the “TSA(without NAD+) / Primary screening (TSA) / delta Tm (K)” value is -0.03 K. The result for `COc1ccc(CNC(=S)NC2CCCCC2)cc1OC` reads -0.23 K; that for `Cc1cc(C=C2C(=O)NC(=S)NC2=O)c(C)n1-c1ccccc1C(F)(F)F`, -1.48 K; that for `Nc1nc2cc(C(=O)O)ccc2[nH]1`, -0.12 K. As to `CN(c1ccccc1C(N)=O)S(=O)(=O)c1cccc(Cl)c1`, the “TSA(without NAD+) / Primary screening (TSA) / delta Tm (K)” value was -0.17 K. The result for `CCCOc1ccc(C2C(C(=O)c3ccc(F)cc3)=C(O)C(=O)N2CCCN2CCOCC2)cc1` (centres unmarked) reads 0.07 K; that for `Cc1ccccc1-c1cc(-c2ccccc2)c2cc([N+](=O)[O-])ccc2n1`, 0.29 K; that for `Cc1cc2nc(N3CCC(CNC(=O)OC(C)(C)C)CC3)c3ccccc3n2n1`, -0.22 K. For `CC(NS(=O)(=O)c1cccc(C(=O)OCC(=O)Nc2sccc2C#N)c1)C12CC3CC(CC(C3)C1)C2` (centres unmarked), the “TSA(without NAD+) / Primary screening (TSA) / delta Tm (K)” value came to 0.36 K.

In the case of `COc1ccccc1S(=O)(=O)NCc1ccc(C(=O)NCC23CC4CC(CC(C4)C2)C3)cc1`, the “TSA(without NAD+) / Primary screening (TSA) / delta Tm (K)” value was 0.02 K. The result for `Cn1c(Cn2nnc3ccccc3c2=O)nc2cc(Cl)ccc21` reads 0.02 K. Then `O=C(CN1CCN(C(=O)c2ccc(-c3ccc(Cl)cc3)o2)CC1)Nc1cccc(F)c1`, with 0.28 K. As for `Cc1nc(-c2ccc(CCNC(=O)c3ccc(-n4cncn4)cc3)s2)cs1`, the “TSA(without NAD+) / Primary screening (TSA) / delta Tm (K)” value is recorded as -0.11 K.

In the case of `Cc1cc(C)nc(NS(=O)(=O)c2ccc(NN=C3C(=O)NC(=S)NC3=O)cc2)n1`, the “TSA(without NAD+) / Primary screening (TSA) / delta Tm (K)” value was -0.08 K.

For the compound `NC(=O)c1ccc(C(=O)OCC(=O)c2cc3ccccc3o2)cc1`, the “TSA(without NAD+) / Primary screening (TSA) / delta Tm (K)” value is -0.38 K. Then `Cc1ccc(C)n1-c1sc2c(c1C#N)CCC(C)C2` (centres unmarked), with -0.12 K; and `Cn1cc(C(N)=O)cc1C(=O)OC1CCc2ccc(F)cc21` (centres unmarked), with -0.01 K.

As to `Cc1nc(CN2CCN(Cc3c(-c4ccccc4)nc4sccn34)CC2)cs1`, the “TSA(without NAD+) / Primary screening (TSA) / delta Tm (K)” value is on record as 0.02 K. The result for `NC(=O)c1ccc(CSc2nc(CC(=O)O)cs2)cc1` reads -0.03 K. With `C=CCn1c(SCc2nc(C)c(-c3ccc(Cl)cc3)o2)nnc1-c1ccco1`, the “TSA(without NAD+) / Primary screening (TSA) / delta Tm (K)” value is -0.14 K. Consider `CN1CCc2cc(NC(=O)COc3ccc(N(C)S(=O)(=O)c4cccs4)cc3)ccc21`, for which the “TSA(without NAD+) / Primary screening (TSA) / delta Tm (K)” value is recorded as -0.08 K.

Consider `Cn1c(N)c(N2CCNCC2)c(=O)n(C)c1=O`, for which the “TSA(without NAD+) / Primary screening (TSA) / delta Tm (K)” value is listed as 0.02 K. Then `NCCC1CC1`, with -0.08 K; and `O=C(O)C1CC(=O)N(c2ccc(S(=O)(=O)Nc3c(F)cccc3F)cc2)C1` (centres unmarked), with 0.03 K.

As to `CCN(Cc1ccccc1)C(=O)CSc1nncn1-c1ccccc1`, the “TSA(without NAD+) / Primary screening (TSA) / delta Tm (K)” value was -0.33 K. Then `Cc1ccc(C23CC4CC(CC(C(=O)OC(C)C(=O)Nc5ccc(S(N)(=O)=O)cc5)(C4)C2)C3)cc1C` (centres unmarked), with 0.48 K.

`COc1ncnc2c1CN(Cc1c[nH]nc1-c1ccc(F)cc1)CC2`: the “TSA(without NAD+) / Primary screening (TSA) / delta Tm (K)” value is -0.12 K.

`CCCOc1ccc(C(=O)C2=C(O)C(=O)N(CCCN3CCOCC3)C2c2ccccc2F)cc1` (centres unmarked): the “TSA(without NAD+) / Primary screening (TSA) / delta Tm (K)” value was -0.27 K.

As to `CC(=O)N1N=C(c2ccc(NS(C)(=O)=O)cc2)CC1c1ccc(F)c(Cl)c1` (centres unmarked), the “TSA(without NAD+) / Primary screening (TSA) / delta Tm (K)” value is recorded as -0.22 K.

With `Cc1ccc(NC(=O)COC(=O)c2ccc(-n3nnc4ccccc43)c([N+](=O)[O-])c2)cc1C`, the “TSA(without NAD+) / Primary screening (TSA) / delta Tm (K)” value is recorded as 0.22 K. Then `Cc1nc2ccccc2nc1SCc1cc(=O)n2ccsc2n1`, with 0.02 K.

As for `Clc1ccc(C(SCc2ncc(-c3ccccc3)o2)c2ccccc2)cc1` (centres unmarked), the “TSA(without NAD+) / Primary screening (TSA) / delta Tm (K)” value was -0.08 K.

Regarding `CN(C)c1noc(C2CC(=O)N(c3ccc(Cl)c(F)c3)C2)n1` (centres unmarked), the “TSA(without NAD+) / Primary screening (TSA) / delta Tm (K)” value is -0.13 K.

As to `COc1ccc2nc3ccccc3nc2c1N`, the “TSA(without NAD+) / Primary screening (TSA) / delta Tm (K)” value was -0.14 K. Then `Cn1c(-c2ccccc2)c(C(=O)CCl)c2ccccc21`, with -0.13 K. In the case of `CN(c1cccc(Cl)c1)S(=O)(=O)c1cccc(C(=O)Oc2ccc3c4c(c(=O)oc3c2)CCC4)c1`, the “TSA(without NAD+) / Primary screening (TSA) / delta Tm (K)” value was found to be 0.02 K. For the compound `NC(=O)C1CCCN(c2ncnc3sc4c(c23)CCCC4)C1` (centres unmarked), the “TSA(without NAD+) / Primary screening (TSA) / delta Tm (K)” value was -0.18 K. Then `CCn1c(C(=O)Nc2cccc(CN3C(=O)CNC3=O)c2)cc2ccccc21`, with 0.23 K. `COc1cccc(NC(=O)C(Oc2ccc(C(N)=O)cc2)c2ccccc2)c1` (centres unmarked): the “TSA(without NAD+) / Primary screening (TSA) / delta Tm (K)” value was -0.08 K. The result for `Cc1cnc(C(=O)OCC(=O)N(c2ccccc2)C(C)C)cn1` reads -0.13 K; that for `Cc1cc(C)nc(NNC(=O)c2cc(-c3ccco3)nc3c(C(N)=O)ncn23)n1`, -0.21 K.

In the case of `CCc1ccccc1N1CC(C(=O)Nc2cccc(S(=O)(=O)Nc3ccc(OC)cc3)c2)CC1=O` (centres unmarked), the “TSA(without NAD+) / Primary screening (TSA) / delta Tm (K)” value turned out to be 0.02 K. Then `CC(NC(=O)CCn1ccc2ccccc21)C(=O)NC1CCCC1` (centres unmarked), with -0.04 K.
